Experimental findings from PubChem BioAssay AID493014 (National Center for Advancing Translational Sciences (NCATS), 2011) are described below.

Structures are written as SMILES. Where “and” joins values, the source holds several entries; their conditions need not be identical. Equal values may be shown once. This is one part of the list. Further columns of the screen follow, without active or inactive calls. Compounds called inactive in the main read-out are mostly missing here. Words in brackets tell the shape of the fitted curve; partial curves, single points and poor fits give uncertain potencies.

The nature of this assay: qHTS Assay to Find Inhibitors of Chronic Active B-Cell Receptor Signaling. The note with it: ABC-DLBCL IkBa-CBG/CBR reporter, luminescence ratio (green luciferase fused to IkBa over red control in TMD8 lymphoma cells), 4 h. A digest of the protocol: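 Doxycycline induced both beetle luciferases in TMD8 lymphoma cells; IKK-driven degradation limits the IkappaBalpha-fused green signal, while red luminescence normalises for cell number and nonspecific effects. Compounds tested up to 46 uM, 4 hrs.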

Setting [1] is: measured here: CBR red luminescence, cell number.
Where [2] appears, read: measured here: IkBa-CBG green luminescence.

As for `CN(C)CC(=O)Nc1nc(-c2ccccc2)cs1`, the AC50 under setting [1] was 4.11 µM [falling, single point].

Take `O=C(CCCc1nc(-c2ccc(Cl)cc2)no1)Nc1cccnc1`: the AC50 under setting [1] is 23.1 µM [falling, single point].

On to `N#Cc1ccccc1OCC(=O)Nc1nnc(C2CC2)s1`, for which the AC50 under setting [1] is 10.3 µM [falling, partial curve, poor fit].

As for `CCOc1ccc(C(=O)Nc2cc(C)c3c(=O)oc4ccccc4c3n2)cc1`, the AC50 under setting [1] was 20.6 µM [falling, partial curve, poor fit].

As for `O=C(CSc1nnc(Nc2ccccc2F)s1)c1cc2ccccc2o1`, the AC50 under setting [1] is 25.9 µM [falling, single point].

As for `NC(=O)CC(NC(=O)Cc1cccc2ccccc12)c1ccc(NCCOc2ccccc2)c([N+](=O)[O-])c1` (configuration not stated), under setting [1], the AC50 is 2 µM [falling, full curve].

Consider `CSc1cccc(NC(=O)c2cnn3ccccc23)c1`, for which, under setting [1], the AC50 is 11.2 µM [falling, single point].

Consider `COc1ccccc1-c1ccc(NC2CCCC2)nn1`, for which the AC50 under setting [1] was 11.6 µM [falling, partial curve].

`CCCCS(=O)Cc1ccccc1` (configuration not stated): the AC50 under setting [1] was 18.4 µM [rising, single point].

`O=C(CSc1nc2ccccc2n1Cc1ccccc1)N/N=C/c1ccco1`: the AC50 under setting [1] is 23.1 µM [falling, single point].

For `Cc1cc(=O)[nH]c(SCC(=O)Nc2nc(-c3ccccc3)c(-c3ccccc3)o2)n1`, the AC50 under setting [1] is 0.146 µM [falling, full curve].

For `O=C(Nc1ncc2c(n1)-c1ccccc1CC2)c1cccs1`, the AC50 under setting [1] is 8.91 µM [falling, partial curve].

As for `Nc1ccc(Cl)cc1C(=O)OCC(=O)NC1CCS(=O)(=O)C1` (configuration not stated), the AC50 under setting [1] was 20 µM [falling, single point].

For the compound `C=CCOc1c(CNc2cccc(C(=O)O)c2)cccc1OCC`, the AC50 under setting [1] was 8.91 µM [falling, single point].

Take `O=C(c1ccco1)N1CCN(C(=O)c2cc(-c3ccccc3F)no2)CC1`: the AC50 under setting [1] was 11.2 µM [rising, partial curve].

Regarding `COc1cc(C(=O)NCCc2ccccc2)ccc1OCC(=O)N1CCOCC1`, the AC50 under setting [1] is 23.1 µM [falling, single point].

Regarding `CC1CCc2nn(CC(=O)NCc3ccco3)cc2C1` (configuration not stated), the AC50 under setting [1] was 1.03 µM [rising, partial curve, poor fit].

With `Cc1ccc(/C=N\Nc2nc3ccc(Cl)cc3[nH]2)o1`, under setting [1], the concentration at half-maximal activity (AC50) was 7.94 µM [falling, partial curve].

Turning to `Cc1cccc(NC(=O)CCC(=O)OCc2ccc(Br)cc2)c1`, under setting [1], the AC50 was 7.31 µM [rising, partial curve, poor fit].

Regarding `CCN1CCN(C(=S)c2ccc(OCC(=O)NCc3ccccc3)cc2)CC1`, the AC50 under setting [1] is 20 µM [rising, partial curve, poor fit].

Consider `CCN1C(=O)CS/C1=N\c1nccs1`, for which, under setting [1], the AC50 is 0.731 µM [falling, full curve, poor fit].

As to `Oc1ccccc1-c1nc(NCc2cccnc2)c2ccccc2n1`, the AC50 is 8.91 µM [falling, partial curve] under setting [1] and 3.55 µM [rising, partial curve] under setting [2].

For `COC(=O)c1coc(-c2ccc(C)cc2)c1C(=O)OC`, under setting [1], the AC50 was 35.5 µM [rising, single point].

With `O=C(COc1ccccc1C(=O)NCc1ccccc1)Nc1ccccc1`, the AC50 under setting [1] was 4.61 µM [falling, partial curve, poor fit].

For `Cc1cccc(NC(=O)Cn2nnc3ccccc32)c1`, under setting [1], the AC50 is 1.41 µM [rising, full curve].

On to `COc1ccc(OCCN2CCN(C(=O)c3ccc(OC)c(OC)c3)CC2)cc1`, for which the AC50 under setting [1] was 35.5 µM [rising, single point].

In the case of `Cc1ccc(C(=O)C2CCN(C(=O)c3ccc(C)cc3)CC2)cc1`, under setting [1], the AC50 is 10 µM [falling, partial curve, poor fit].

With `Cc1cccc(NC(=O)Cc2ccc(F)cc2)c1`, the AC50 under setting [1] is 0.0517 µM [rising, full curve, poor fit].

In the case of `C/C(=N\NC(=O)c1ccc([N+](=O)[O-])cc1Cl)c1ccccc1`, under setting [1], the AC50 is 6.31 µM [rising, full curve, poor fit].

For the compound `C/C(N)=C(/C#N)C(=O)COC(=O)c1cc(-c2ccc(C)cc2)nc2ccccc12`, the AC50 under setting [1] was 1.64 µM [rising, partial curve, poor fit].

In the case of `O=C(OCCN1CCCCC1)c1ccccc1Br`, the AC50 under setting [1] is 0.1 µM [rising, full curve, poor fit].

Take `COCCNC(=O)/C(C#N)=C/C=C/c1ccccc1[N+](=O)[O-]`: the AC50 under setting [1] is 22.4 µM [falling, single point].

As for `CCOc1ccc(CN(C)C(=O)CCl)cc1`, the AC50 under setting [1] was 10 µM [falling, partial curve].

With `COC(=O)CSc1nnc(NC(=O)C2CC(=O)N(c3ccc(F)cc3)C2)s1` (configuration not stated), the AC50 under setting [1] was 35.5 µM [falling, single point].

Take `COc1ccc(NC(=O)c2ccc([N+](=O)[O-])o2)cc1`: the AC50 under setting [1] was 14.1 µM [falling, single point].

As for `Cc1ccc(C(=O)c2oc3ccccc3c2NC(=O)c2cc(-c3ccccc3O)n[nH]2)cc1`, the concentration at half-maximal activity (AC50) is, setting by setting: under setting [1], 11.6 µM [falling, partial curve]; under setting [2], 23.1 µM [falling, partial curve, poor fit].

Consider `Cc1ccc(C(=O)/C=C/NNC(=O)c2ccccc2O)cc1`, for which the AC50 under setting [1] was 12.6 µM [falling, partial curve].

As to `O=C(CNC(=S)N(Cc1ccccc1)Cc1ccccc1F)NCc1ccccc1`, the AC50 under setting [1] was 17.8 µM [falling, single point].

`O=C(NC(=S)N1CCN(c2ccc(C(F)(F)F)cc2[N+](=O)[O-])CC1)c1cccs1`: under setting [2], the AC50 was 18.4 µM [falling, single point].

Take `CCc1nn2cc(-c3ccccc3)nc2s1`: the AC50 under setting [1] is 11.6 µM [falling, partial curve, poor fit].

Take `CCn1c2ccccc2c2nnc(SCCCn3c(=O)[nH]c4ccccc43)nc21`: under setting [1], the AC50 is 2.82 µM [falling, full curve, poor fit].

With `O=C(O)c1ccc(-c2nc(-c3ccccc3)c(-c3ccccc3)[nH]2)cc1`, under setting [1], the AC50 was 23.1 µM [falling, single point].

`Cn1c(=O)c2c(nc(NN=C3CCCC3)n2C)n(C)c1=O`: the AC50 under setting [1] is 1.12 µM [falling, full curve, poor fit].

Turning to `CN(C)/C=N/n1cnc2ccccc2c1=O`, the AC50 under setting [1] is 35.5 µM [rising, single point].

Take `CCOC(=O)C1=CNS(=O)(=O)NC1c1ccc(C(F)(F)F)cc1` (configuration not stated): under setting [1], the AC50 was 6.51 µM [rising, single point].

Turning to `C=CCn1c(SCC(=O)Nc2ccc(NC(C)=O)cc2)nc2sc(C)c(C)c2c1=O`, under setting [1], the AC50 was 3.66 µM [rising, partial curve].

For the compound `C/C(=N/NC(=O)c1cc(C)[nH]n1)c1ccco1`, the half-maximal activity concentration (AC50) under setting [1] is 3.98 µM [falling, full curve].

For the compound `O=C(Nc1ncc([N+](=O)[O-])s1)c1cccs1`, the AC50 under setting [1] is 1.12 µM [falling, full curve] and 2.82 µM [falling, full curve, poor fit].

For the compound `Cc1cccc(C(=O)N/N=C/c2ccc[nH]2)c1`, the AC50 under setting [1] is 18.4 µM [falling, single point].

`COc1cc(C(=O)O[C@H]2CC(C)=CC[C@@]3(C)CC[C@@](O)(C(C)C)[C@H]23)ccc1O`: the AC50 under setting [1] is 35.5 µM [rising, single point].

As to `CCc1ccc(NC(=O)CN(c2cc(C)cc(C)c2)S(=O)(=O)c2c(C)[nH]c(=O)[nH]c2=O)cc1`, under setting [1], the AC50 is 6.31 µM [rising, single point].

In the case of `CC(C)CC(=O)N(c1nnc(-c2cccnc2)s1)C1CCCC1`, the half-maximal activity concentration (AC50) under setting [1] was 25.1 µM [rising, single point].

In the case of `O=C(CCc1ccc(O)c(O)c1)NNC(=S)NCCc1ccccc1`, under setting [1], the AC50 was 4.11 µM [rising, single point].

With `COc1ccc(CN2C(=O)C(Cc3ccccc3)Nc3ncnc(N4CCc5ccccc5C4)c32)cc1` (configuration not stated), under setting [1], the AC50 was 10.3 µM [falling, partial curve].

`Nc1ncnc2c1ncn2[C@@H]1O[C@H](CNC(=O)[C@@H](N)C2CCCCC2)[C@@H](O)[C@H]1O`: the AC50 was 18.4 µM [rising, single point] under setting [1] and 5.8 µM [falling, partial curve, poor fit] under setting [2].

Take `C[C@@H]1CN([C@H](C)CO)C(=O)c2cc(NS(=O)(=O)c3ccc(F)cc3)ccc2O[C@@H]1CN(C)Cc1ccc(Cl)c(Cl)c1`: the AC50 under setting [1] is 29.1 µM [falling, single point].

Regarding `CCCCC(C(=O)NC1CCCC1)N(Cc1ccco1)C(=O)Cn1nnc(-c2ccc(F)cc2)n1` (configuration not stated), the AC50 under setting [1] is 0.231 µM [falling, full curve, poor fit].

Take `CN(C)c1cccc(C(=O)NCc2ccc3c(c2)OCO3)c1`: the AC50 under setting [1] was 35.5 µM [falling, single point].

As to `Cc1ccc(Nc2oc(C)nc2C#N)cc1`, the AC50 under setting [1] is 8.91 µM [falling, partial curve, poor fit].

On to `COc1ccccc1CC(=O)Nc1ccc2[nH]ncc2c1`, for which the AC50 under setting [1] is 35.5 µM [falling, partial curve, poor fit].

On to `Cc1ccc(-n2cc(-c3ccc([N+](=O)[O-])cc3)[nH]c2=S)c(C)c1`, for which, under setting [1], the AC50 was 1.84 µM [rising, full curve, poor fit].

Turning to `CC(=O)SC(C[N+](=O)[O-])c1cn(C(C)=O)c2ccccc12` (configuration not stated), the AC50 under setting [1] is 35.5 µM [falling, single point].

Take `O=C(Nc1nc2ccc(SC(F)F)cc2s1)c1ccc(NS(=O)(=O)c2ccc(F)c(F)c2)cc1`: under setting [1], the AC50 was 18.4 µM [falling, single point].

Consider `COc1ccc(C(O)c2nc3ccccc3n2C(C)C)cc1` (configuration not stated), for which the AC50 under setting [1] is 25.1 µM [falling, single point].
